Assay results as given in PubChem BioAssay (Tox21).
Where “and” joins values, the source holds several entries; their conditions need not be identical. Identical values can stand only once. This list was built around the results that the source calls inconclusive (neither active nor inactive); the mix of calls is not that of the screen. For some of these results: Where the call is inconclusive, the potency comes from a doubtful curve fit. Calls of active or inactive are those of the source. Unless noted, calls follow the shape of the full dose curve.

The chains behind the UniProt entries cited, without tags or fusion partners. Where a name states a change or a piece, a line headed by the entry shows the natural chain unless it says otherwise.
UniProt P28223, whole entry, looked up: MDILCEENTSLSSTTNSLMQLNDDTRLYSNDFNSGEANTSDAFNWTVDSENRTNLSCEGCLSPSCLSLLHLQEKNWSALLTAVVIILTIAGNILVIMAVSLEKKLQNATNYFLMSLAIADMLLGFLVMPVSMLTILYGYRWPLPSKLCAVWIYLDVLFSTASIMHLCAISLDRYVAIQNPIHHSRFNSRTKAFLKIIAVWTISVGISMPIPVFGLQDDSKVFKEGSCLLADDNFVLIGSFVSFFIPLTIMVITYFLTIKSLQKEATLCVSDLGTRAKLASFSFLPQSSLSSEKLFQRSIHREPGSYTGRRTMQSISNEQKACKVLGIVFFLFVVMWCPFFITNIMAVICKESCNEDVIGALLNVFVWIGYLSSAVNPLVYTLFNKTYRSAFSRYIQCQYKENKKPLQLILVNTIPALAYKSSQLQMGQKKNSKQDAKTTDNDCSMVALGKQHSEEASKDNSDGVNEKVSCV
UniProt P11229: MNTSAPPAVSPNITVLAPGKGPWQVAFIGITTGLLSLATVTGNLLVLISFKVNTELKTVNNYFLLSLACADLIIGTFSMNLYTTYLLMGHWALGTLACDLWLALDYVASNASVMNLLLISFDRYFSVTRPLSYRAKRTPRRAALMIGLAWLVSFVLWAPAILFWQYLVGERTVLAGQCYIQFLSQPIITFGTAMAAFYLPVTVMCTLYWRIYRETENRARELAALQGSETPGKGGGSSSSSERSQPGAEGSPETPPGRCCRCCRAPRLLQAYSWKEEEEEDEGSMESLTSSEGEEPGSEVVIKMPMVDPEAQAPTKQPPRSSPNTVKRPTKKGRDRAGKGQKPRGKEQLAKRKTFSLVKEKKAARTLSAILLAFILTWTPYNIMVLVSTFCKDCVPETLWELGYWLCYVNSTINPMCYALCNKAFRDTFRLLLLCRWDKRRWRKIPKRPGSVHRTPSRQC

What was measured:
[1] = biological target: 5-hydroxytryptamine receptor 2A (Homo sapiens) (UniProt P28223); assay: 5-hydroxytryptamine receptor 2A (HTR2A) small molecule antagonists, cell-based qHTS assay (AID 1963586); also: nearly all actives have a fitted effect of over 45% in size; also: potency is read from the fitted curve at half-maximal effect
How it was run: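 Antagonist-mode intracellular calcium assay: DOI (4 nM) added after 5 min compound pre-incubation at room temperature to dye-loaded HTR2A-CHO cells. Fluorescence followed for 3 min, sampled every second.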

[2] = biological target: 5-hydroxytryptamine receptor 2A (Homo sapiens) (UniProt P28223); assay: 5-hydroxytryptamine receptor 2A (HTR2A) small molecule agonists, cell-based qHTS assay (AID 1963587); also: potency is read from the fitted curve at half-maximal effect; nearly all actives have a fitted effect of over 30% in size
How it was run: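 Kinetic calcium-flux fluorescence (2 min, 1 sec intervals) after compound addition in agonist mode. HTR2A-CHO cells were cultured 18 h, then dye-loaded 1 h at 37 C.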

[3] = cAMP Responsive Elements (CRE) small molecule agonists, cell-based qHTS assay (AID 1963590); details: CRE-bla HEK293T, beta-lactamase FRET ratio, 3 h; activation: at 92.4 µM (top of the series) unless noted; also: potency is read from the fitted curve at half-maximal effect
How it was run: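 HEK 293T CRE-bla, 2,000 cells/well, 18 h preincubation 37 C/5% CO2; cpds (DMSO) pinned, 3 h; LiveBLAzer B/G FRET substrate, 2 h RT.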

[4] = cAMP Responsive Elements (CRE) small molecule antagonists, cell-based qHTS assay (AID 1963591; active = well fitted inhibition curve with a large enough effect in the signal ratio in the repeat runs, not every such curve was filed as active; inconclusive = weak or mixed curves, or effect the other way; the % refers to the signal ratio; also: % is scaled to controls: 0 for no effect and ±100 for the full control effect); details: CRE-bla HEK293T, beta-lactamase FRET ratio; activity change, negative = inhibition: at 92.4 µM (top of the series) unless noted
How it was run: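 Beta-lactamase reporter read by FRET substrate (LiveBLAzer B/G) after 2 h at room temperature. CRE-bla HEK293T cells had received compound plus 0.25 uM (final) NKH477 for 3 h at 37 °C.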

[5] = biological target: Muscarinic acetylcholine receptor M1 (Homo sapiens) (UniProt P11229); assay: Cholinergic receptor muscarinic 1 (CHRM1) small molecule antagonists, cell-based qHTS assay (AID 1963588); also: potency is read from the fitted curve at half-maximal effect; nearly all actives have a fitted effect of over 40% in size
How it was run: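 CHRM1-CHO calcium-flux assay, antagonist mode. Cells were seeded 18 h, dye-loaded 1 h at 37 C and given compound for 5 min at RT, then acetylcholine was added at 50nM. FDSS fluorescence was read 3 min; 15 concentrations, three runs.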

[6] = biological target: Beta-2 adrenergic receptor (Homo sapiens) (UniProt P07550); assay: Adrenergic beta2 receptor (ADRB2) small molecule agonists, cell-based qHTS assay (AID 1963593); details: CHO-ADRB2 cells, cAMP HTRF, 30 min; activation: at 92.4 µM (top of the series) unless noted;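 also: CHO cells stably overexpressing human ADRB2; % is scaled to controls: 0 for no effect and ±100 for the full control effect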
How it was run: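 CHO cells stably over-expressing ADRB2 were plated overnight at 37C, then dosed with compounds plus a stimulation mix containing 100uM IBMX and 25uM Ro-20-1724 for 0.5hr at room temperature. cAMP was measured by HTRF competition, 1hr.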

In the case of `O=C1O[C@H](CO)[C@@H](O)[C@H](O)[C@H]1O`, the Potency [1] is reported as inconclusive: 1.49 µM [inhibitor, full curve, poor fit].
For `CCCCCCCCCCCCC(=O)O`, the Potency [1] was “inactive”.
With `CN(C)CCN(Cc1ccsc1)c1ccccn1` the Potency [1] was inconclusive: 0.0326 µM [inhibitor, partial curve, poor fit].
With `CCCCCc1ccc(N)cc1` the Potency [1] was “inactive”, the Potency [2] was inconclusive: 61.6 µM [activator, partial curve, poor fit] and the Potency [3] was inconclusive: 54.5 µM [rising, partial curve].
With `C=Cc1ccc(C=C)cc1` the Potency [1] was inconclusive: 51.6 µM [inhibitor, single point].
For `O=C(OCc1ccccc1)c1ccc(O)cc1`, the Potency [1] was active: 33.4 µM and inconclusive: 23.1 µM [inhibitor, single point].
In the case of `CCOC(=O)C(=O)CCCCCCl`, the Potency [1] is reported as inconclusive: 0.729 µM [inhibitor, single point].
For `CC(=O)[O][Al]`, the Potency [1] was “inactive”.
In the case of `CCCCOc1cc(C(=O)NCCN(CC)CC)c2ccccc2n1`, the Potency [1] is reported as inconclusive: 14.5 µM [inhibitor, partial curve, poor fit], the Potency [2] is reported as inconclusive: 21.3 µM [activator] and the Potency [4] is reported as “inactive”.
In the case of `N#CCC(=O)NN`, the Potency [1] is reported as inconclusive: 11.6 µM [inhibitor, full curve, poor fit].
In the case of `Cc1cccc(C(C)(C)C)c1O`, the Potency [1] is reported as inconclusive: 37.5 µM [inhibitor, partial curve], the Potency [2] is reported as inconclusive: 54.9 µM [activator, single point] and the Potency [5] is reported as inconclusive: 18.8 µM [inhibitor, single point]. For the same molecule, the Potency [6] was “inactive”.
For `O=C(O)CNC(=O)c1ccccc1`, the Potency [1] was inconclusive: 23.1 µM [inhibitor, single point].
For `CC(C)(C)C(=O)Oc1ccc(S(=O)(=O)Nc2ccccc2C(=O)NCC(=O)O)cc1`, the Potency [1] was inconclusive: 1.83 µM [inhibitor, full curve, poor fit].
With `COC(=O)[C@@H]1CC2=CC(=O)CC[C@]2(C)[C@@]23O[C@@H]2C[C@@]2(C)[C@@H](CC[C@@]24CCC(=O)O4)[C@H]13` the Potency [1] was inconclusive: 2.05 µM [inhibitor, single point].
In the case of `Nc1ccc(S(=O)(=O)Nc2ccccc2)cc1`, the Potency [1] is reported as inconclusive: 0.0023 µM [inhibitor, full curve, poor fit].
With `C[C@@H](O)[C@H]1C(=O)N2C(C(=O)O)=C([C@H]3CCCO3)S[C@H]12` the Potency [1] was “inactive”.
For `CCOC(=O)[C@H](O)[C@@H](O)C(=O)OCC`, the Potency [1] was inconclusive: 0.003 µM [inhibitor, full curve, poor fit].
In the case of `CCN(CC)CCc1nc(-c2ccccc2)no1`, the Potency [1] is reported as inconclusive: 0.0006 µM [inhibitor], the Potency [2] is reported as inconclusive: 5.35 µM [activator, full curve, poor fit] and the activity change, negative = inhibition [4] is reported as inconclusive: 6.92% [at 42.4 µM]. The activation [6] was inconclusive: -25% [at 42.5 µM].
